Measured values: article PMC6506688
Results are given in words; binding and its absence hold for the method and conditions named. In cells and extracts the contact can be indirect. Some entries that bind do so weakly or less than the wild type.

Amino acid sequences for entries named in this document (tags omitted).
UniProt P09936: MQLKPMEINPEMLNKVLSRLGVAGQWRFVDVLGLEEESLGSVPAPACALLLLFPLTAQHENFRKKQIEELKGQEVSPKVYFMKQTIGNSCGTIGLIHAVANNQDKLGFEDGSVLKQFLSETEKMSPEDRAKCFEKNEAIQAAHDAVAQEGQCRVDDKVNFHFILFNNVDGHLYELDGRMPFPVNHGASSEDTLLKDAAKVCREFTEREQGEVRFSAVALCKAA

Biological target: Deubiquitinase UCHL1, endogenous in OCI-LY7 cells (human (endogenous in OCI-LY7)) (UniProt P09936)
Test: co-IP; OCI-LY7 DLBCL cells lysed; endogenous proteins immunoprecipitated with antibodies to IgG, AIP, UCHL1, BCL6 or FBXO11 and immunoblotted

B1: Aryl hydrocarbon receptor interacting protein (AIP), endogenous in OCI-LY7 cells (protein, UniProt O00170 1-330)
chain: MADIIARLREDGIQKRVIQEGRGELPDFQDGTKATFHYRTLHSDDEGTVLDDSRARGKPMELIIGKKFKLPVWETIVCTMREGEIAQFLCDIKHVVLYPLVAKSLRNIAVGKDPLEGQRHCCGVAQMREHSSLGHADLDALQQNPQPLIFHMEMLKVESPGTYQQDPWAMTDEEKAKAVPLIHQEGNRLYREGHVKEAAAKYYDAIACLKNLQMKEQPGSPEWIQLDQQITPLLLNYCQCKLVVEEYYEVLDHCSSILNKYDDNVKAYFKRGKAHAAVWNAQEAQADFAKVLELDPALAPVVSRELRALEARIRQKDEEDKARFRGIFSH
  binding: binds
